Experimental data from patent US6020460A, “Conformationally stabilized cell adhesion peptides” (La Jolla Cancer Research Foundation, priority 1994, dated 2000).
Part of at least one peptide drawing is inferred or uncertain, most often the ends.

What was measured:
[1] = test system: normal rat kidney cells (attachment to fibronectin); assay: Cell adhesion assay: inhibition of attachment of normal rat kidney cells to fibronectin; format: cell-based; details: fibronectin-coated wells, peptide 0 to 10.0 mM, FIG. 2
[2] = test system: normal rat kidney cells (attachment to vitronectin); assay: Cell adhesion assay: inhibition of attachment of normal rat kidney cells to vitronectin; format: cell-based; details: vitronectin-coated wells, peptide 0 to 10.0 mM, FIG. 2

Structure (SMILES): C[C@H](NC(=O)[C@@H]1CSSC(C)(C)[C@H](NC(=O)CN)C(=O)NCC(=O)N[C@@H](CCCNC(=N)N)C(=O)NCC(=O)N[C@@H](CC(=O)O)C(=O)N[C@@H](CO)C(=O)N2CCC[C@H]2C(=O)N1)C(=O)O [cyclic peptide, Gly-Pen-Gly-Arg-Gly-Asp-Ser-Pro-Cys-Ala]
- inhibition of attachment to fibronectin [1]: ineffective
- molar concentration inhibiting attachment to vitronectin, fold lower than the linear peptide [2]: 10 fold
